Assay results published in PubChem BioAssay AID493014 (National Center for Advancing Translational Sciences (NCATS), 2011).
Some of the results follow. Further columns of the screen follow, without active or inactive calls. The list favours compounds with an active or inconclusive main result. The note in brackets gives the kind of curve behind each potency; many fits are weak.

Assay: qHTS Assay to Find Inhibitors of Chronic Active B-Cell Receptor Signaling
Conditions: ABC-DLBCL IkBa-CBG/CBR reporter, luminescence ratio (green luciferase fused to IkBa over red control in TMD8 lymphoma cells), 4 h
Summary of the method: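 TMD8 human ABC-DLBCL cells with doxycycline-inducible IκBα–green luciferase fusion and unfused red luciferase, in 0.5% FBS medium; compounds up to 46 uM, 4 h at 37C. Green/red luminescence ratio, filter-overlap corrected, fitted to concentration-response curves.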

[1] = measured here: CBR red luminescence, cell number
[2] = measured here: IkBa-CBG green luminescence

SMILES	AC50 [1]	AC50 [2]
C/C(=N/NC(=O)c1ccco1)c1cccc(NC(=O)c2ccc(C)o2)c1	35.5 µM [falling, single point]	
COc1ccc(C)cc1S(=O)(=O)NCC(c1ccc2c(c1)OCO2)N1CCN(C)CC1 (stereo unspecified)	23.1 µM [falling, partial curve, poor fit]	
CCNC(=S)N/N=C(\C)c1cccc([N+](=O)[O-])c1		18.4 µM [falling, single point]
COc1ccc(CNc2ccc(C)c(C)c2)c(OC)c1OC	3.55 µM [rising, full curve, poor fit]	
COc1cccc(CNC(=O)Cn2ccc3cc(S(=O)(=O)N4CCCC4)ccc32)c1	14.1 µM [rising, single point]	
COc1cc(C(=S)N2CCOCC2)ccc1OS(=O)(=O)c1ccccc1[N+](=O)[O-]	5.8 µM [rising, partial curve, poor fit]	
COCCCNCCCOc1ccc(Cl)cc1C(C)(C)C	1.46 µM [falling, full curve, poor fit]	
COc1cccc(C2c3[nH]c4ccccc4c3C[C@H]3C(=O)N(C4CCN(Cc5ccccc5)CC4)CC(=O)N23)c1 (stereo partly specified)	35.5 µM [falling, single point]	
COCCNC(=O)COC(=O)CSCc1nc2ccccc2s1	1.12 µM [rising, partial curve, poor fit]	
Cc1ccc(S(=O)(=O)NNC(=S)Nc2c(Cl)cccc2Cl)cc1	7.08 µM [falling, partial curve, poor fit]	
O=C(Nc1nc2nc(-c3ccccc3)cc(=O)n2[nH]1)c1ccc(F)cc1	16.4 µM [falling, partial curve, poor fit]	
O=C(NCCCN=C1NS(=O)(=O)c2ccccc21)c1ccc(S(=O)(=O)N2CCOCC2)cc1	14.6 µM [rising, single point]	
O=C(CSc1ncnc2ccccc12)Nc1cccc(S(=O)(=O)N2CCOCC2)c1	10 µM [falling, partial curve]	20 µM [rising, partial curve, poor fit]
CCOC(=O)C1=C(C)N(c2ccccc2)C(=O)C1CC(=O)O (stereo unspecified)	11.2 µM [falling, partial curve]	
Nc1ccc(Sc2cc(Cl)nc(N)n2)cc1	1.3 µM [rising, full curve, poor fit]	2.91 µM [falling, partial curve, poor fit]
O=C1/C(=C\c2ccc3ccccc3c2)CCCc2ccccc21	0.146 µM [falling, full curve, poor fit]	
Nc1nc(NCc2ccco2)nc(NC2CCCCC2)c1[N+](=O)[O-]	3.55 µM [rising, single point]	
COC(=O)c1ccc(NC(=O)c2nc(S(=O)(=O)Cc3cccc(C)c3)ncc2Cl)cc1	7.08 µM [falling, partial curve]	
O=C(Nc1nnc(-c2ccc(Br)cc2)o1)C1=COCCO1	29.1 µM [falling, single point]	
CC1(C)OC(=O)C(=Cc2ccc(-c3ccc(S(N)(=O)=O)cc3)o2)C(=O)O1	10 µM [rising, partial curve, poor fit]	
Cc1ccc(-c2nnn(CC(=O)N(Cc3ccco3)C(C(=O)NC(C)(C)C)c3ccc(C)o3)n2)o1 (stereo unspecified)	2.82 µM [falling, partial curve, poor fit]	

SMILES	AC50 [1]	AC50 [2]
O=C1C(c2ccc(F)cc2)N(CCc2ccccc2)C(=O)CN1C1CCCCC1 (stereo unspecified)	3.16 µM [rising, partial curve, poor fit]	
CCOc1ccccc1NC(=O)CSc1nnnn1-c1ccccc1	1.84 µM [falling, full curve, poor fit]	
CC(c1ccccc1)N1CCn2c(nc3cc(NC(=O)c4cccs4)ccc32)C1 (stereo unspecified)	5.17 µM [falling, full curve, poor fit]	
CCOC(=O)c1ccc(N2C(=O)c3n[nH]c(C)c3C2c2ccc(OC)cc2)cc1 (stereo unspecified)	35.5 µM [falling, single point]	
Cn1nnnc1Sc1ncnc2scc(-c3ccc(C#N)cc3)c12		32.6 µM [falling, partial curve, poor fit]
COc1ccc(N2C(=O)c3ccccc3NC2c2ccccc2O)cc1 (stereo unspecified)	14.1 µM [falling, single point]	
CCOc1ccc(C(=O)N2CCCC2)cc1	13 µM [rising, partial curve, poor fit]	
Cc1cc(/C=C(\C#N)C(=O)Nc2ccccc2F)c(C)[nH]1	15.8 µM [falling, partial curve]	
CC(C)c1nnc(NC(=O)CSc2nc3ccccc3s2)s1	15.8 µM [rising, single point]	
Cn1cnc([N+](=O)[O-])c1S(=O)(=O)c1cccc(Cl)c1	25.9 µM [falling, single point]	
CC(=O)NN1C(=O)/C(=C\c2ccc(Br)o2)SC1=S	7.31 µM [falling, partial curve]	
Cc1cc(C(=O)OC(C(=O)Nc2cccc(C(F)(F)F)c2)c2ccccc2)c(C)o1 (stereo unspecified)		23.1 µM [rising, partial curve, poor fit]
COc1ccc(N)cc1-n1cnnn1	35.5 µM [falling, partial curve, poor fit]	
COc1cccc(-c2cc(C(=O)N3CCOCC3)no2)c1	10 µM [falling, partial curve]	
COc1ccc(N2CCN(c3nc4c(c(=O)n(C)c(=O)n4C)n3Cc3ccccc3)CC2)cc1	0.00517 µM [rising, full curve, poor fit]	
O=C1c2ccccc2CN1C(CO)Cc1ccccc1 (stereo unspecified)	20 µM [rising, single point]	
CC(C)/C=N\NC(=O)CCCCC(=O)N/N=C/C(C)C	8.2 µM [falling, partial curve, poor fit]	
O=Cc1c(Sc2ccccn2)nc2ccccn2c1=O	20.6 µM [falling, single point]	
Cc1cccn2c(CNCCCOc3cccnc3)c(C(=O)N3CCOCC3)nc12	11.2 µM [falling, single point]	
COc1cccc(CNC(=O)C(=O)NCC2OCCCN2S(=O)(=O)c2cc(C)ccc2C)c1 (stereo unspecified)	10 µM [falling, partial curve, poor fit]	
CCC(C)Cn1c(S(=O)(=O)O)nc2ccccc21 (stereo unspecified)	6.51 µM [falling, single point]	

Sorted by length of the SMILES (rising): three of the compounds above
SMILES	AC50 [1]	AC50 [2]
CCNC(=S)N/N=C(\C)c1cccc([N+](=O)[O-])c1		18.4 µM [falling, single point]
COc1cccc(CNC(=O)Cn2ccc3cc(S(=O)(=O)N4CCCC4)ccc32)c1	14.1 µM [rising, single point]	
COc1cccc(C2c3[nH]c4ccccc4c3C[C@H]3C(=O)N(C4CCN(Cc5ccccc5)CC4)CC(=O)N23)c1 (stereo partly specified)	35.5 µM [falling, single point]	

(list continues)

SMILES	AC50 [1]	AC50 [2]
Brc1csc(/C=N/Nc2nc3ccccc3s2)c1	9.2 µM [falling, partial curve]	
Cc1cc(C)cc(OCc2ccc(C(=O)NC3CCOC3=O)o2)c1 (stereo unspecified)	35.5 µM [falling, single point]	
O=C(CCN1CCc2ccccc2CC1)c1ccc2c(c1)OCCO2	0.116 µM [falling, full curve, poor fit]	
CC(C)OCCCN1C(=O)c2[nH]nc(-c3ccccc3O)c2C1c1cccc(Cl)c1 (stereo unspecified)	18.4 µM [falling, partial curve]	
CC(C)COc1ccc(C(=O)Nc2cc(S(=O)(=O)N3CCOCC3)ccc2N2CCCC2)cc1	14.6 µM [rising, partial curve, poor fit]	16.4 µM [falling, partial curve, poor fit]
CC(/C=N/Nc1ccc2nncn2n1)=C\c1ccccc1	0.708 µM [rising, partial curve]	
Cc1cc2ccccn2c1C(=O)c1ccc(NN)c([N+](=O)[O-])c1	7.94 µM [falling, partial curve]	
NC1=NN(c2cccc(C(=O)O)c2)C(=O)C1	11.6 µM [falling, partial curve]	
COc1ccc(-c2[nH]ncc2CN2CCSCC2)c(OC)c1	35.5 µM [rising, single point]	
c1ccc(-c2nnc3n2N=C(c2ccc4c(c2)OCO4)CS3)nc1	7.08 µM [falling, partial curve, poor fit]	
CCOC(=O)C1=NN(c2ccc(Cl)cc2)C(=O)C1	6.31 µM [rising, partial curve, poor fit]	
Cc1[nH][nH]c(=O)c1C(c1ccc(-c2ccc(Cl)cc2)o1)c1c(C)[nH][nH]c1=O	10.3 µM [falling, partial curve, poor fit]	
CN(c1ccccc1)S(=O)(=O)c1ccc(C(=O)NCCc2ccccc2)cc1	3.16 µM [rising, single point]	
COc1ccc2c(c1)OC[C@H]1[C@H]2N2C(=O)c3cc(F)ccc3NC(=O)[C@@]2(C)[C@H]1c1ccccc1	6.51 µM [falling, partial curve, poor fit]	7.31 µM [rising, partial curve, poor fit]
O=C(Nc1nnc(C2CCCCC2)s1)C1CC(=O)N(c2ccc(F)cc2)C1 (stereo unspecified)	1.58 µM [rising, partial curve, poor fit]	
Cc1cccc(NC(=O)c2ccc(-c3ccccc3[N+](=O)[O-])o2)c1	22.4 µM [falling, single point]	
CCC(C)(C)NC(=O)Cc1ccccc1OC	29.1 µM [rising, single point]	
CCCN(CCC)CC(O)Cn1cc(/C=C/C(=O)c2cccs2)c2ccccc21 (stereo unspecified)	25.9 µM [falling, single point]	
O=[N+]([O-])c1ccc2[nH]cc(S(=O)(=O)N3CCN(c4cccc(Cl)c4)CC3)c2c1	17.8 µM [falling, single point]	
COc1ccc(-c2cccc([C@H]3[C@@H]4C=CCC[C@@]4(C)C(=O)N3Cc3ccccc3)c2)cc1	14.1 µM [falling, single point]	
